Source: the supplement of paper PMC8728848
This is one part of the list.

Key:
Assay in all cases: glycan array binding signal (z-score within array); higher = stronger binding
Details in all cases: glycan notation: IUPAC condensed, linker removed
[1] = molecular target: GalNAc3S(b1-4)[Fuc(a1-3)]GlcNAc
How it was run: (§1)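 Glycan array binding is given as a within-array Z-score, which can be read as non-binding when negative. The arrays, 3228 of them, came from the Consortium for Functional Glycomics database and were retained only where the protein sequence was available. Z-scores were averaged across arrays of the same protein sequence at different concentrations or buffers and across linkers.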

GalNAc4S6S(b1-4)GlcNAc = molecular target: GalNAc4S6S(b1-4)GlcNAc
How it was run: as §1

GalNAc6S(b1-4)GlcNAc = molecular target: GalNAc6S(b1-4)GlcNAc
How it was run: as §1

Glc(a1-4)Glc = molecular target: Glc(a1-4)Glc
How it was run: as §1

[2] = molecular target: Glc(a1-4)Glc(a1-4)Glc(a1-4)Glc
How it was run: as §1

Glc(a1-6)Glc(a1-6)Glc = molecular target: Glc(a1-6)Glc(a1-6)Glc
How it was run: as §1

[3] = molecular target: Glc(a1-6)Glc(a1-6)Glc(a1-6)Glc
How it was run: as §1

Glc(b1-4)Glc = molecular target: Glc(b1-4)Glc
How it was run: as §1

Glc(b1-6)Glc = molecular target: Glc(b1-6)Glc
How it was run: as §1

GlcA(b1-3)Gal = molecular target: GlcA(b1-3)Gal
How it was run: as §1

GlcA(b1-3)GlcNAc = molecular target: GlcA(b1-3)GlcNAc
How it was run: as §1

GlcA(b1-6)Gal = molecular target: GlcA(b1-6)Gal
How it was run: as §1

[4] = molecular target: GlcA3S(b1-3)Gal(b1-4)GlcNAc(b1-2)Man
How it was run: as §1

[5] = molecular target: GlcA3S(b1-3)Gal(b1-4)GlcNAc(b1-3)Gal(b1-4)Glc
How it was run: as §1

[6] = molecular target: GlcNAc(a1-3)Gal(b1-4)GlcNAc
How it was run: as §1

[7] = molecular target: GlcNAc(a1-4)Gal(b1-3)GlcNAc
How it was run: as §1

[8] = molecular target: GlcNAc(a1-4)Gal(b1-4)GalNAc
How it was run: as §1

[9] = molecular target: GlcNAc(a1-4)Gal(b1-4)GlcNAc
How it was run: as §1

[10] = molecular target: GlcNAc(a1-4)Gal(b1-4)GlcNAc(b1-3)Gal(b1-4)Glc
How it was run: as §1

[11] = molecular target: GlcNAc(a1-4)Gal(b1-4)GlcNAc(b1-3)Gal(b1-4)GlcNAc
How it was run: as §1

[12] = molecular target: GlcNAc(a1-4)Gal(b1-4)GlcNAc(b1-3)Gal(b1-4)GlcNAc(b1-3)Gal(b1-4)GlcNAc
How it was run: as §1

[13] = molecular target: GlcNAc(a1-4)Gal(b1-4)GlcNAc(b1-3)Gal(b1-4)[Fuc(a1-3)]GlcNAc(b1-3)Gal(b1-4)[Fuc(a1-3)]GlcNAc
How it was run: as §1

[14] = molecular target: GlcNAc(a1-6)Gal(b1-4)GlcNAc
How it was run: as §1

[15] = molecular target: GlcNAc(b1-2)Gal(b1-3)GalNAc
How it was run: as §1

[16] = molecular target: GlcNAc(b1-2)Man(a1-3)[GlcNAc(b1-2)Man(a1-6)]Man(b1-4)GlcNAc(b1-4)GlcNAc
How it was run: as §1

[17] = molecular target: GlcNAc(b1-2)Man(a1-3)[GlcNAc(b1-2)Man(a1-6)]Man(b1-4)GlcNAc(b1-4)[Fuc(a1-6)]GlcNAc
How it was run: as §1

[18] = molecular target: GlcNAc(b1-2)Man(a1-3)[GlcNAc(b1-4)][GlcNAc(b1-2)Man(a1-6)]Man(b1-4)GlcNAc(b1-4)GlcNAc
How it was run: as §1

[19] = molecular target: GlcNAc(b1-2)Man(a1-3)[GlcNAc(b1-4)][GlcNAc(b1-2)Man(a1-6)]Man(b1-4)GlcNAc(b1-4)[Fuc(a1-6)]GlcNAc
How it was run: as §1

[20] = molecular target: GlcNAc(b1-2)[GlcNAc(b1-4)]Man(a1-3)[GlcNAc(b1-2)Man(a1-6)]Man(b1-4)GlcNAc(b1-4)GlcNAc
How it was run: as §1

[21] = molecular target: GlcNAc(b1-2)[GlcNAc(b1-4)]Man(a1-3)[GlcNAc(b1-4)][GlcNAc(b1-2)Man(a1-6)]Man(b1-4)GlcNAc(b1-4)GlcNAc
How it was run: as §1

[22] = molecular target: GlcNAc(b1-2)[GlcNAc(b1-4)]Man(a1-3)[GlcNAc(b1-4)][GlcNAc(b1-2)[GlcNAc(b1-6)]Man(a1-6)]Man(b1-4)GlcNAc(b1-4)GlcNAc
How it was run: as §1

[23] = molecular target: GlcNAc(b1-2)[GlcNAc(b1-4)]Man(a1-3)[GlcNAc(b1-4)][GlcNAc(b1-2)[GlcNAc(b1-6)]Man(a1-6)]Man(b1-4)GlcNAc(b1-4)[Fuc(a1-6)]GlcNAc
How it was run: as §1

[24] = molecular target: GlcNAc(b1-2)[GlcNAc(b1-6)]Man(a1-6)[GlcNAc(b1-2)Man(a1-3)]Man(b1-4)GlcNAc(b1-4)GlcNAc
How it was run: as §1

[25] = molecular target: GlcNAc(b1-2)[GlcNAc(b1-6)]Man(a1-6)[GlcNAc(b1-2)Man(a1-3)]Man(b1-4)GlcNAc(b1-4)[Fuc(a1-6)]GlcNAc
How it was run: as §1

[26] = molecular target: GlcNAc(b1-2)[GlcNAc(b1-6)]Man(a1-6)[GlcNAc(b1-4)][GlcNAc(b1-2)Man(a1-3)]Man(b1-4)GlcNAc(b1-4)GlcNAc
How it was run: as §1

GlcNAc(b1-3)Fuc = molecular target: GlcNAc(b1-3)Fuc
How it was run: as §1

GlcNAc(b1-3)Gal = molecular target: GlcNAc(b1-3)Gal
How it was run: as §1

[27] = molecular target: GlcNAc(b1-3)Gal(b1-3)GalNAc
How it was run: as §1

B1: Wzz (Escherichia coli) (protein)
chain: MRTWKFPSVRVMMRVENNNVSGQNHDPEQIDLIDLLVQLWRGKMTIIISVIVAIVLAIGYLAVAKEKWTSTAIITQPDVGQIAGYNNAMNVIYGQAAPKVSDLQETLIGRFSSAFSALAETLDNQEEPEKLTIEPSVKNQQLPLTVSYVGQTAEGAQMKLAQYIQQVDDKVNQELEKDLKDNIALGRKNLQDSLRTQEVVAQEQKDLRIRQIQEALQYANQAQVTKPQIQQTGEDITQDTLFLLGSEALESMIKHEATRPLVFSSNYYQTRQNLLDIDNLDVDKLDIHAYLYVMKPTLPIRRDSPKKAITLILAVLLGGMVGAGIVLGRNALRNYNAK
**Q.** For B1, which “glycan array binding signal (z-score)” value [1] is on record?
**A.** Its value is 0.835.

**Q.** What about the “glycan array binding signal (z-score)” value (GalNAc4S6S(b1-4)GlcNAc) of the same binder?
**A.** Its value is 5.1.

**Q.** What about the “glycan array binding signal (z-score)” value (GalNAc6S(b1-4)GlcNAc) of the same binder?
**A.** Its value is -0.373.

**Q.** And the “glycan array binding signal (z-score)” value (Glc(a1-4)Glc)?
**A.** Its value is -0.197.

**Q.** And the “glycan array binding signal (z-score)” value [2]?
**A.** Its value is 0.175.

**Q.** And the “glycan array binding signal (z-score)” value (Glc(a1-6)Glc(a1-6)Glc)?
**A.** Its value is -0.682.

**Q.** And the “glycan array binding signal (z-score)” value [3]?
**A.** The value was 0.02.

**Q.** And the “glycan array binding signal (z-score)” value (Glc(b1-4)Glc)?
**A.** The value was -0.306.

**Q.** What about the “glycan array binding signal (z-score)” value (Glc(b1-6)Glc) of the same binder?
**A.** The value was -0.619.

**Q.** What about the “glycan array binding signal (z-score)” value (GlcA(b1-3)Gal) of the same binder?
**A.** Its value is 1.51.

**Q.** What about the “glycan array binding signal (z-score)” value (GlcA(b1-3)GlcNAc) of the same binder?
**A.** Its value is 0.197.

**Q.** And the “glycan array binding signal (z-score)” value (GlcA(b1-6)Gal)?
**A.** Its value is 1.01.

**Q.** What about the “glycan array binding signal (z-score)” value [4] of the same binder?
**A.** Its value is 1.07.

**Q.** What about the “glycan array binding signal (z-score)” value [5] of the same binder?
**A.** The value was -0.084.

**Q.** What about the “glycan array binding signal (z-score)” value [6] of the same binder?
**A.** Its value is -0.597.

**Q.** And the “glycan array binding signal (z-score)” value [7]?
**A.** Its value is -0.185.

**Q.** What about the “glycan array binding signal (z-score)” value [8] of the same binder?
**A.** Its value is 0.305.

**Q.** What about the “glycan array binding signal (z-score)” value [9] of the same binder?
**A.** The value was -0.192.

**Q.** What about the “glycan array binding signal (z-score)” value [10] of the same binder?
**A.** Its value is 0.679.

**Q.** What about the “glycan array binding signal (z-score)” value [11] of the same binder?
**A.** The value was 0.28.

**Q.** What about the “glycan array binding signal (z-score)” value [12] of the same binder?
**A.** The value was -0.262.

**Q.** And the “glycan array binding signal (z-score)” value [13]?
**A.** The value was 0.173.

**Q.** What about the “glycan array binding signal (z-score)” value [14] of the same binder?
**A.** The value was -0.723.

**Q.** What about the “glycan array binding signal (z-score)” value [15] of the same binder?
**A.** Its value is -0.1.

**Q.** And the “glycan array binding signal (z-score)” value [16]?
**A.** The value was -0.215.

**Q.** What about the “glycan array binding signal (z-score)” value [17] of the same binder?
**A.** Its value is -0.094.

**Q.** And the “glycan array binding signal (z-score)” value [18]?
**A.** The value was -0.166.

**Q.** And the “glycan array binding signal (z-score)” value [19]?
**A.** The value was -0.345.

**Q.** What about the “glycan array binding signal (z-score)” value [20] of the same binder?
**A.** Its value is -0.409.

**Q.** And the “glycan array binding signal (z-score)” value [21]?
**A.** The value was -0.534.

**Q.** And the “glycan array binding signal (z-score)” value [22]?
**A.** The value was -0.406.

**Q.** What about the “glycan array binding signal (z-score)” value [23] of the same binder?
**A.** The value was -0.752.

**Q.** What about the “glycan array binding signal (z-score)” value [24] of the same binder?
**A.** Its value is -0.845.

**Q.** And the “glycan array binding signal (z-score)” value [25]?
**A.** Its value is -0.505.

**Q.** What about the “glycan array binding signal (z-score)” value [26] of the same binder?
**A.** The value was -0.577.

**Q.** What about the “glycan array binding signal (z-score)” value (GlcNAc(b1-3)Fuc) of the same binder?
**A.** The value was 0.1.

**Q.** And the “glycan array binding signal (z-score)” value (GlcNAc(b1-3)Gal)?
**A.** Its value is -0.688.

**Q.** And the “glycan array binding signal (z-score)” value [27]?
**A.** The value was -0.471.
